Results on one sequence are retold here after article PMC8945937.

The chains behind the UniProt entries cited, without tags or fusion partners. Where a name states a change or a piece, a line headed by the entry shows the natural chain unless it says otherwise.
UniProt Q00987: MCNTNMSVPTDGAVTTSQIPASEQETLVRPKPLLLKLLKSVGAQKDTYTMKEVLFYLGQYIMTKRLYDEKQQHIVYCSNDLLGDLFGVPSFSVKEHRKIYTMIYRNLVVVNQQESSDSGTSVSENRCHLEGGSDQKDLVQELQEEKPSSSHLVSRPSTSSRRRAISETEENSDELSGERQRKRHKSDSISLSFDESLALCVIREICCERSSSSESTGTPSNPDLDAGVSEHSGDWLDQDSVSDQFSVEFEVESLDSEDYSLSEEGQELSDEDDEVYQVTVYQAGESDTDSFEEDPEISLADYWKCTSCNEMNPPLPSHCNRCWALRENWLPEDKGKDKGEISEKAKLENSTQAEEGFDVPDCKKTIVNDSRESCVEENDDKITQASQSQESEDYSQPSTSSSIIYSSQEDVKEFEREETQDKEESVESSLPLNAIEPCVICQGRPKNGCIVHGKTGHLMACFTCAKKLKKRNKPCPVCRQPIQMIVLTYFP

The target in this series is MDM2 (purified endogenous / rhMDM2) (human) (UniProt Q00987). Nature of the series: EMSA with UV cross-linking, immunoblot. Particulars: biotinylated UTP (pull-down); unlabeled in gel shift; native protein; label: biotin-UTP internal in pull-down; probe letters rebuilt from the primers and the genome; part of a longer molecule.

The exact form of at least one protein or probe is not confirmed. The comparison behind a weaker result is the experiment's own reference, which may not be listed here.

On to “CCUCCCAUAUUCUCCCGUCUAGCACCUUUGAUUUCUCCCAAACCCGGCAGCCCGAGACUGUUGCAAACCGGCGCCACAGGGCGCAAAGGGGAUUUGUCUCUUCUGAAACCUGGCUGAGAAAUUGGGAACUCCGUGUGGGAGGCGUGGGGGUGGGACGGUGGGGUACAGACUGGCAGAGAGCAGGCAACCUCCCUCUCGCCCUAGCCCAGCUCUGGAACAGGCAGACACA [c-Myc 5'UTR IRES RNA probe (probe 2)]”, for which the binding result is recorded as “binds more weakly”.
